This note sets out measurements from publication PMC4339652.

Protein sequences, listed by entry. Tags and fused reporters are not part of them. Residues count along the entry.
UniProt P0A855, residues 22-430: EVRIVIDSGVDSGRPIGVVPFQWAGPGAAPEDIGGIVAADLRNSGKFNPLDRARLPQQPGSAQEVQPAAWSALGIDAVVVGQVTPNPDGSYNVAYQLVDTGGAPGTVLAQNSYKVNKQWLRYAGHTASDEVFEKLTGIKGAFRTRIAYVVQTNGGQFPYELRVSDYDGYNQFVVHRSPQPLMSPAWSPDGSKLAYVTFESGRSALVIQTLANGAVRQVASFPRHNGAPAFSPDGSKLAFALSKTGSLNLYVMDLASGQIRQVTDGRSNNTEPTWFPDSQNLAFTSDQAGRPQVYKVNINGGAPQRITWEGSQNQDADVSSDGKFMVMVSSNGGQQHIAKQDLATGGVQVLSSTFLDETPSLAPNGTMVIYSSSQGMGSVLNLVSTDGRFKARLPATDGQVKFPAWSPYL

Numbering of substitutions follows the chain as printed. Results are given in words; binding and its absence hold for the method and conditions named.

One test concerns the target T1, TolAIII K420P (E. coli) (UniProt P19934).
T1 sequence: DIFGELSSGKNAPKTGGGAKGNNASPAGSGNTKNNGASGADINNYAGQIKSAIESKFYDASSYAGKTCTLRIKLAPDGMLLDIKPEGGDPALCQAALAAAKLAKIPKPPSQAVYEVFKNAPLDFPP
In words: SPR; TolAIII WT, D418P or K420P amine-coupled to CM5; TolB 10 µM in HEPES-EP injected at 10 µl/min for 180 s; blank surface subtracted; both purified.

Another test addresses T2, TolAIII D418P (E. coli) (UniProt P19934).
T2 sequence: T1 sequence with D123P, P125K
The test is described as above.

In the case of “TolB, wild type (from UniProt P0A855 22-430)”, the binding entry with TolAIII K420P (E. coli) and with TolAIII D418P (E. coli) was “no binding (tested: 10 µM)” in each case.
